Measured values published in PubChem BioAssay AID720504 (National Center for Advancing Translational Sciences (NCATS), 2013).
Screen size: about 360,000 compounds; about 10,000 (2.8%) were called active. Inconclusive means that the source gave no clear call. Such entries were picked first, then a sample of the others. Calls come from the whole dose curve; as a rule, active = well fitted inhibition curve with a large enough effect; inconclusive = small, poorly fitted or top-dose-only effect; inactive = flat fitted curve, though single readings scatter. A potency beside an inconclusive call is a rough fit, not a confirmed value.
% is set by controls: 0 for no effect and ±100 for the full control effect; potency is the fitted concentration of half-maximal effect.
Note: nearly all actives have a fitted effect of over 65% in size.
Throughout, for max response, negative = inhibition: series mostly up to about 57 µM.

Sequences of proteins named here, by UniProt entry; tags and fusion partners are left off.
UniProt P53350, whole entry, looked up: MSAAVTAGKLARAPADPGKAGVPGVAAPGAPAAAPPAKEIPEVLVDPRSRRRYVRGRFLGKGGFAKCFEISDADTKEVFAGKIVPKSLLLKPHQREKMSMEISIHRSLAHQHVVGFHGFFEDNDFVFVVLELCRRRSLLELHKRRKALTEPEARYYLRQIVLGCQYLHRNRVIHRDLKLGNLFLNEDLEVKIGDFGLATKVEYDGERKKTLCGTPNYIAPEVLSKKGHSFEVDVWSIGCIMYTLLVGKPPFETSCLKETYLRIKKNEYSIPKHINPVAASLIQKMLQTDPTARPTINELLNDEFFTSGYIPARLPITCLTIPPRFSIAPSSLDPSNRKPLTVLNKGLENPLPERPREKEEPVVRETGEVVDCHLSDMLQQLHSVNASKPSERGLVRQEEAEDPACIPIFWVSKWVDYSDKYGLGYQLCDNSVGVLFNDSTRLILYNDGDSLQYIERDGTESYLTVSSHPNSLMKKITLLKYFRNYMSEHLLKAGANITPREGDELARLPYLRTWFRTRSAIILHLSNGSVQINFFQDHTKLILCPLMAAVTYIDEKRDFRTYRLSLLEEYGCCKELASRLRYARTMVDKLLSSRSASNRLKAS

The molecules below were run against Serine/threonine-protein kinase PLK1 (Homo sapiens) (UniProt P53350) (assay: qHTS for Inhibitors of PLK1-PDB (polo-like kinase 1 - polo-box domain): Primary Screen). Settings: Plk1 PBD binding of FITC phosphopeptide, fluorescence polarization.
`CC1(C)CC(=O)C(C(C#Cc2ccccc2)C2=C(O)CC(C)(C)CC2=O)=C(O)C1` was tested, and the Potency was active: 4.23 µM.
In the case of `CC(C)c1cc(C(=O)Nc2sc3c(c2C#N)CCC3)no1`, the Potency is reported as active: 23.8 µM.
In the case of `CC(/C=N/NC(=O)c1cc(C(C)C)[nH]n1)=C\c1ccccc1`, the Potency is reported as active: 29.9 µM.
`CCCCCc1nc2sc3c(c2c(=O)n1NC(=O)c1ccc([N+](=O)[O-])cc1)CC(C)(C)OC3` was tested, and the max response, negative = inhibition was inactive: -11.8%.
For `Cn1c(/C(C#N)=C/c2ccc(-c3ccc(S(N)(=O)=O)cc3)o2)nc2ccccc21`, the Potency was inconclusive: 37.7 µM [inhibitor, single point].
With `COc1cc(/C=N/OCC(=O)NC2CCS(=O)(=O)C2)ccc1OC(F)F` (stereo not given) the Potency was inconclusive: 33.6 µM [inhibitor, single point].
For `Cc1cccc2c(C(=O)N3CCN(C(=O)c4ccco4)CC3)cc(-c3cccc(Br)c3)nc12`, the Potency was inconclusive: 29.9 µM [inhibitor, partial curve].
For `CC(C)N(CCCNC(=O)Cn1c(=O)c2cccn2c2ccccc21)Cc1ccccc1`, the max response, negative = inhibition was inactive: -8.82%.
For `CCNC(=S)N1CCN(Cc2ccccc2)CC1`, the max response, negative = inhibition was inactive: -0.917%.
`N#Cc1cc2c(nc1SCc1cccnc1)CCCCC2` was tested, and the max response, negative = inhibition was inactive: -5.96%.
With `COc1cc(/C=C(\NC(C)=O)C(=O)Nc2ccc(NC(C)=O)cc2)ccc1OC(C)=O` the Potency was inconclusive: 29.9 µM [inhibitor, single point].
In the case of `NS(=O)(=O)c1cccc(NC(=O)CSc2ccccn2)c1`, the Potency is reported as inconclusive: 26.7 µM [inhibitor, single point].
In the case of `COc1cc([N+](=O)[O-])ccc1NC(=O)CN(C)C`, the max response, negative = inhibition is reported as inactive: -6.2%.
In the case of `Cc1ccccc1-c1cc2nc(-c3ccc([N+](=O)[O-])cc3)cc(=O)n2[nH]1`, the Potency is reported as inconclusive: 29.9 µM [inhibitor, partial curve].
`COc1ccc(/C(C)=N/NS(=O)(=O)c2cc(C)ccc2C)c(OC)c1` was tested, and the Potency was inconclusive: 10.6 µM [inhibitor, partial curve].
With `N[C@@H](CCC(=O)N[C@@H](CSN=O)C(=O)NCC(=O)O)C(=O)O` the Potency was inconclusive: 21.2 µM [inhibitor, single point].
In the case of `O=C(CNS(=O)(=O)c1ccc2ccccc2c1)NCCc1ccccn1`, the Potency is reported as inconclusive: 29.9 µM [inhibitor, single point].
In the case of `COc1ccc(C2NC(=S)NC3=C2CCc2cc(OC)ccc23)cc1` (stereo not given), the Potency is reported as inconclusive: 23.8 µM [inhibitor, partial curve].
In the case of `CC1Oc2ccccc2OC1(O)c1ccccn1` (stereo not given), the max response, negative = inhibition is reported as inactive: -5.81%.
For `O=[N+]([O-])c1ccccc1/C=N/n1c(-c2ccccc2)n[nH]c1=S`, the Potency was inconclusive: 33.6 µM [inhibitor, partial curve].
With `O=C(NC1CCCCC1)C1CCN(c2nccs2)CC1` the Potency was inconclusive: 21.2 µM [inhibitor, partial curve].
With `COc1cc(NC(=O)C2CCCN(S(=O)(=O)c3cccc4nsnc34)C2)cc(OC)c1` (stereo not given) the Potency was inconclusive: 26.7 µM [inhibitor, single point].
`Cc1ccc(C)c2c1CCC(=Cc1ccccc1[N+](=O)[O-])C2=O` was tested, and the max response, negative = inhibition was inactive: -7.11%.
For `CC(=O)N(O)c1ccc(C=Cc2ccccc2)cc1`, the Potency was inconclusive: 26.7 µM [inhibitor, partial curve].
In the case of `CCCC1=NN2C(=N)/C(=C\c3cc(C)n(-c4cc(C)cc(C)c4)c3C)C(=O)N=C2S1`, the Potency is reported as inconclusive: 21.2 µM [inhibitor, partial curve].
With `O=C(NC1CCCCC1)c1cccnc1Sc1ccccc1` the max response, negative = inhibition was inactive: -2.5%.
`CCc1nnc(NC(=O)C2CC(=O)N(c3ccc4c(c3)OCCO4)C2)s1` (stereo not given) was tested, and the Potency was active: 13.4 µM.
`O=Cc1ccc(Cl)c(Cl)c1` was tested, and the Potency was inconclusive: 5.97 µM [inhibitor, partial curve].
`CCCCCCCC#Cc1ccccc1/C=N/S(=O)c1ccc(C)cc1` (stereo not given) was tested, and the Potency was active: 15 µM.
In the case of `O=C(Nc1ccc(F)c(Cl)c1)C1CCCN(c2cnccn2)C1` (stereo not given), the max response, negative = inhibition is reported as inactive: -8.33%.
With `Cc1nc2ccccn2c1C(=O)N/N=C/c1ccccc1` the max response, negative = inhibition was inactive: -12.3%.
In the case of `CCCc1cc(=O)oc2cc(OCC(=O)Nc3ccc(S(N)(=O)=O)cc3)ccc12`, the Potency is reported as inconclusive: 29.9 µM [inhibitor, partial curve].
In the case of `COc1ccc(-c2csc(-c3ccccc3)n2)c(OC)c1`, the max response, negative = inhibition is reported as inconclusive: -30.5% [inhibitor].
`Cc1sc2ncn(CC(=O)NCCCC(=O)N(C)Cc3ccccc3)c(=O)c2c1C` was tested, and the Potency was active: 26.7 µM.
`CC(C)C(OC(=O)c1ccccc1)c1nccc2ccccc12` (stereo not given) was tested, and the max response, negative = inhibition was inconclusive: -11.1% [inhibitor].
With `CCOC(=O)CSc1nnc(-c2ccc(S(=O)(=O)N3CCOCC3)cc2)n1-c1ccccc1` the max response, negative = inhibition was inconclusive: -31.5% [inhibitor].
`O=C(CN1C(=O)/C(=C2\SC(=S)N(C3CCS(=O)(=O)C3)C2=O)c2ccccc21)Nc1ccccc1` (stereo not given) was tested, and the max response, negative = inhibition was inactive: -13.2%.
In the case of `O=S(=O)(Nc1nc2ccccc2s1)c1ccc(Br)s1`, the Potency is reported as inconclusive: 37.7 µM [inhibitor, single point].
In the case of `COc1ccccc1-c1cc(C(F)(F)F)nc(S(C)(=O)=O)n1`, the Potency is reported as inconclusive: 29.9 µM [inhibitor, single point].
In the case of `OCCNc1nc(SCc2ccccc2)nc2sc3c(c12)CCC3`, the Potency is reported as inconclusive: 11.9 µM [inhibitor, partial curve].
`Cc1occc1C(=O)N/N=C/C=C\c1ccccc1[N+](=O)[O-]` was tested, and the Potency was inconclusive: 37.7 µM [inhibitor, single point].
`N#C/C(=C/c1ccco1)C(N)=S` was tested, and the max response, negative = inhibition was inactive: -22%.
In the case of `NC(=O)C1(N2CCCCC2)CCN(C(=O)c2cccn3c(=O)c4cc(Cl)ccc4nc23)CC1`, the Potency is reported as inconclusive: 37.7 µM [inhibitor, partial curve].
For `Fc1ccc(Nc2cncc(-c3ccsc3)c2)cc1Cl`, the Potency was inconclusive: 23.8 µM [inhibitor, single point].
In the case of `COc1ccc(C(=O)/C=C2\NCC3c4ccccc4CCN3C2=O)cc1` (stereo not given), the Potency is reported as active: 9.47 µM.
`CCOc1ccc(S(=O)(=O)N2CCOCC2)cc1NC(=O)CSC(=S)N1CCCC1` was tested, and the Potency was inconclusive: 18.9 µM [inhibitor, partial curve].
`COc1ccc(S(=O)(=O)N2CCOCC2)cc1NC(=O)C1CC(=O)N(c2ccc3c(c2)OCCO3)C1` (stereo not given) was tested, and the Potency was inconclusive: 67 µM [inhibitor, partial curve].
For `COC(=O)c1ccc(C(=O)OC)c(NC(=O)CSc2n[nH]c(N)n2)c1`, the max response, negative = inhibition was inactive: -6.48%.
For `CC(SCc1nc2sc3c(c2c(=O)[nH]1)CCCC3)C(=O)Nc1ccccn1` (stereo not given), the max response, negative = inhibition was inconclusive: -34% [inhibitor].
With `CCOCCCn1c(=N)c(C(N)=S)cc2c(=O)n3cccc(C)c3nc21` the Potency was inconclusive: 16.8 µM [inhibitor, partial curve].
In the case of `O=c1/c(=C/c2ccc(O)c([N+](=O)[O-])c2)sc2nc3ccccc3n12`, the Potency is reported as inconclusive: 23.8 µM [inhibitor, single point].
With `Cc1ccc(NC(=O)CS(=O)CC(=O)Nc2ccc(N3CCOCC3)cc2)cc1Cl` (stereo not given) the max response, negative = inhibition was inconclusive: -34.1% [inhibitor].
`Cc1cc(C(=O)CSc2nnc(-c3ccco3)o2)c(C)n1CC1COc2ccccc2O1` (stereo not given) was tested, and the max response, negative = inhibition was inactive: 2.8%.
`Cc1ccc(S(=O)(=O)Nc2c(C(=O)O)[nH]c3ccccc23)cc1C` was tested, and the Potency was inconclusive: 26.7 µM [inhibitor, single point].
With `O=C(NNC(=S)NCCc1ccccc1)c1ccc(Br)s1` the Potency was inconclusive: 33.6 µM [inhibitor, single point].
With `O=C(CSc1ccc2c(c1)OCCO2)NCc1ccco1` the Potency was inconclusive: 15.8 µM [inhibitor, partial curve].
In the case of `O=C(COc1ccccc1)NC1C(=O)N2C(C(=O)O)=C(Cl)CSC12` (stereo not given), the Potency is reported as inconclusive: 15 µM [inhibitor, partial curve].
With `CC1CCc2c(sc(NC(=O)c3noc4c3CCCC4)c2C(N)=O)C1` (stereo not given) the max response, negative = inhibition was inconclusive: -19.4% [inhibitor].
With `Cc1cc(SC(C)C(=O)Nc2ncc(Cl)cc2Cl)nc2ccccc12` (stereo not given) the Potency was inconclusive: 23.8 µM [inhibitor, partial curve].
In the case of `O=C1CCCC/C1=C\Nc1ccc(O)cc1`, the max response, negative = inhibition is reported as inactive: -1.31%.
`CCCCN(C(=S)NC(=O)c1ccccc1)c1c(N)n(Cc2ccccc2)c(=O)[nH]c1=O` was tested, and the max response, negative = inhibition was inconclusive: -35.3% [inhibitor].
With `CCC(=O)N1CCc2cc(Br)cc(S(=O)(=O)CC(=O)OC)c21` the Potency was inconclusive: 11.9 µM [inhibitor, partial curve].
With `C[C@@H]1Cc2[nH][nH]c(=O)c2[C@H](c2ccc(Cl)cc2)O1` the Potency was inconclusive: 21.2 µM [inhibitor, single point].
For `CCCN(CC(=O)Nc1ccccc1C)C(=O)c1ccc(-c2ccc([N+](=O)[O-])cc2)o1`, the Potency was inconclusive: 23.8 µM [inhibitor, partial curve].
`Cc1ccc(CN2C(=O)C(C)Nc3ncnc(N4CCN(c5ccccn5)CC4)c32)cc1` (stereo not given) was tested, and the max response, negative = inhibition was inactive: 5.12%.
For `O=C(NC(=S)N1CCCCC1c1cccnc1)c1ccc(F)cc1` (stereo not given), the Potency was inconclusive: 26.7 µM [inhibitor, partial curve].
In the case of `O=C(N=C1SC2CS(=O)(=O)CC2N1Cc1ccccc1)c1ccccc1` (stereo not given), the max response, negative = inhibition is reported as inactive: -10.4%.
`CCOC1=C2[C@@H](CN(S(=O)(=O)c3ccc(C)cc3)[C@H]2c2ccccc2Cl)[C@H]2C(=O)N(Cc3ccccc3)C(=O)[C@H]2C1` was tested, and the max response, negative = inhibition was inactive: -0.152%.
`CNc1nc(N)c([N+](=O)[O-])c(N2CCCCCC2)n1` was tested, and the max response, negative = inhibition was inactive: -5.6%.
